Results reported in patent publication EP1186305A1 (Schering Aktiengesellschaft, priority 2000, dated 2002).
At least one compound was matched to its structure with a doubt left.

Tests used:
[1] = Osmolality of contrast media formulations (vapor pressure osmometer); format: physicochemical
Procedure: (§1) For this purpose contrast media formulation with a molar concentration of […] for monomeric compounds and of […] for dimeric compounds, equivalent to a iodine concentration of 300 mgI/mL or 189 mgBr/mL were prepared at neutral pH. After heat sterilization under standard conditions for 20 min at 120°C changes in pH and free bromine and iodine was measured. The osmolality was measured at 37°C using a Knauer vapor pressure osmometer. Viscosity of contrast media formulations was determined using a Schott capillary viscosimeter which was standardized with water.

[2] = Phantom studies with conventional mammography (X-ray absorption of contrast media in agar discs); settings: 10 mm agar discs in 5 cm water phantom, film mammography
Procedure: The agar pieces were prepared in cell-culture well-plates having a diameter of 24 mm and a final height of 10 mm. After formation of solid agar the agar discs were placed in a water phantom containing 5 cm height of water. Additionally a control agar disc prepared with physiological saline instead of CM volume was added. The whole phantom was imaged with a commercial available mammograph at various energies of 30 kV, 25 and 20 kV and 140 mAs. After exposure the mammographic films were developed according to standard quality guidelines. Later the films were digitized and signal intensities of the agar discs and surrounding water background were measured with a imaging analyzing software.

[3] = Viscosity of contrast media formulations (capillary viscosimeter); format: physicochemical; settings: formulations 0.788 (monomer) or 0.394 (dimer) mol/L
Procedure: as §1

SMILES: CC(=O)N(CC(O)CO)c1c(I)c(C(=O)NCC(O)CO)c(I)c(C(=O)NCC(O)CO)c1I (stereo not drawn) [Iohexol, 5-[N-(2,3-dihydroxypropyl)acetylamino]-2,4,6-triiodo-N,N'-bis-(2,3-dihydroxypropyl)isoph-thalamide, reference compound]
- Osmolality a) monomer, 0.788 mol/L, 37°C [1]: 690 mOsm/kg water
- detected down to concentration [2]: 1 mg I/mL
- Viscosity (37°C) [3]: 6.1 mPa·s
